Laboratory results: PubChem BioAssay AID248 (DTP/NCI, 2004)
The list shows only some results of the screen, not a fair sample: it gathers tests that were run many times, whatever their T/C, doses with no T/C, and many T/C values between a quarter and a half above the control. Other doses and runs of a compound stand elsewhere. T/C is the treated group as % of the vehicle group. Some doses have a count of surviving animals in place of a T/C: the source files T/C as zero there, which appears to mark a toxic dose or a test without result, not a measured value. Some doses without a T/C left all or most animals alive at the check, yet need not have been tolerated: survival well below the control is almost never listed, so the zero probably covers shortened survival too. Survivors were counted at the toxicity check, usually on the fifth day, unless a day is given; later deaths do not show. Schedules are NCI's codes, read here as Q, the interval in days (D) or hours (H), X, the number of doses. Some entries were tested several times; the results are listed from low to high. Where survival is the endpoint, the PubChem record calls one and a half times the control and up active, and a quarter to a half above the control has no call in these data; cut-offs in other NCI protocols can differ. Some T/C values carry the count of animals alive at the toxicity check (mostly the fifth day); where none is given, no animal had died by that day.

Test system: L1210 leukemia ip in BDF1 mice, survival T/C
Assay: NCI In Vivo Anticancer Drug Screen. Data for tumor model L1210 Leukemia (intraperitoneal) in B6D2F1 (BDF1) mice
Conditions: T/C endpoint: mean survival time, higher T/C = longer survival
[1] = dose: 300.0 mg/kg/injection, schedule: Q01DX001 (ip), vehicle: carboxymethylcellulose (CMC)
[2] = dose: 400.0 mg/kg/injection, schedule: Q01DX001 (ip), vehicle: Klucel (hydroxypropylcellulose) (HPC)
[3] = dose: 200.0 mg/kg/injection, schedule: Q04DX003 (ip), vehicle: Klucel (hydroxypropylcellulose) (HPC)
[4] = dose: 400.0 mg/kg/injection, schedule: Q04DX003 (ip), vehicle: Klucel (hydroxypropylcellulose) (HPC)
[5] = dose: 400.0 mg/kg/injection, schedule: Q01DX001 (ip), vehicle: saline
[6] = dose: 200.0 mg/kg/injection, schedule: Q01DX009 (ip), vehicle: saline
[7] = dose: 400.0 mg/kg/injection, schedule: Q04DX003 (ip), vehicle: saline
[8] = dose: 400.0 mg/kg/injection, schedule: Q01DX009 (ip), vehicle: saline with Tween-80
[9] = dose: 100.0 mg/kg/injection, schedule: Q04DX003 (ip), vehicle: Klucel (hydroxypropylcellulose) (HPC)
[10] = dose: 200.0 mg/kg/injection, schedule: Q01DX001 (ip), vehicle: carboxymethylcellulose (CMC)
[11] = dose: 400.0 mg/kg/injection, schedule: Q01DX001 (ip), vehicle: carboxymethylcellulose (CMC)

CCCCc1ccc(NC(=O)N(CCCl)N=O)cc1
T/C (dose: 0.7 mg/kg/injection, schedule: Q01DX009 (ip), vehicle: carboxymethylcellulose (CMC)): 125 % of control | T/C (dose: 1.5 mg/kg/injection, schedule: Q01DX009 (ip), vehicle: carboxymethylcellulose (CMC)): 132 % of control | T/C (dose: 3.0 mg/kg/injection, schedule: Q01DX009 (ip), vehicle: carboxymethylcellulose (CMC)): 138 % of control | T/C (dose: 18.7 mg/kg/injection, schedule: Q01DX001 (ip), vehicle: carboxymethylcellulose (CMC)): 128 % of control | T/C (dose: 75.0 mg/kg/injection, schedule: Q01DX001 (ip), vehicle: carboxymethylcellulose (CMC)): 143 % of control | T/C (dose: 150.0 mg/kg/injection, schedule: Q04DX003 (ip), vehicle: saline with Tween-80): 142 % of control | survivor count [1]: 6 of 6 | T/C (dose: 300.0 mg/kg/injection, schedule: Q04DX003 (ip), vehicle: saline with Tween-80): 137 % of control

CCOC(=O)C1(c2ccccc2)CCN(CCC(=O)c2ccc(F)cc2)CC1
survivor count [2]: 1 of 6

COc1cc(CCN)ccc1OCc1ccccc1
survivor count [3]: 2 of 6 | survivor count [2]: 1 of 6 | survivor count [4]: 0 of 6

COc1ccc(/C=C(\SS/C(=C/c2ccc(OC)cc2)C(=O)O)C(=O)O)cc1
survivor count [5]: 0 of 4

C/C=C1\CCCCN(Cc2ccccc2)CCC1
survivor count (dose: 300.0 mg/kg/injection, schedule: Q01DX001 (ip), vehicle: saline): 1 of 6

Clc1nc(I)c(Cl)c(C(Cl)(Cl)Cl)n1
survivor count (dose: 100.0 mg/kg/injection, schedule: Q01DX001 (ip), vehicle: Klucel (hydroxypropylcellulose) (HPC)): 2 of 3 | survivor count (dose: 200.0 mg/kg/injection, schedule: Q01DX001 (ip), vehicle: Klucel (hydroxypropylcellulose) (HPC)): 0 of 3 | survivor count [2]: 0 of 3

O=c1[nH]cnc2ccnn12
survivor count [6]: 1 of 6 | survivor count [7]: 0 of 6

S=C(Nc1ccc(Cl)c(Cl)c1)SCc1ccc2c(c1)OCO2
T/C (dose: 75.0 mg/kg/injection, schedule: Q01DX009 (ip), vehicle: saline): 130 % of control

O=C(O)c1cc(Cl)c(Cl)cc1Cl
survivor count [6]: 3 of 6 | survivor count [7]: 0 of 6

Cc1c(Cl)cccc1NC(=O)Oc1ccc(-c2ccccc2)cc1
survivor count [8]: 3 of 3 and 6 of 6

N#CSCCOCCSC#N
survivor count (dose: 20.0 mg/kg/injection, schedule: Q01DX001 (ip), vehicle: saline): 0 of 4 | survivor count (dose: 40.0 mg/kg/injection, schedule: Q01DX001 (ip), vehicle: saline): 0 of 4 | survivor count (dose: 80.0 mg/kg/injection, schedule: Q01DX001 (ip), vehicle: saline): 0 of 4 | survivor count (dose: 100.0 mg/kg/injection, schedule: Q01DX001 (ip), vehicle: saline): 0 of 4 | survivor count (dose: 200.0 mg/kg/injection, schedule: Q01DX001 (ip), vehicle: saline): 0 of 4 | survivor count [5]: 0 of 4

BrC1CCCCCC(Br)C12OCCO2 (configuration not stated)
survivor count [9]: 0 of 6 | survivor count [3]: 0 of 6 | survivor count [4]: 0 of 6

CC(C)(C(=O)O)C(=O)O
survivor count [5]: 1 of 4

N#CC1C2CCC(C2)C1CCCNCCCC1C2CCC(C2)C1C#N (configuration not stated)
survivor count (dose: 400.0 mg/kg/injection, schedule: Q04DX002 (ip), vehicle: saline): 3 of 3

CC(=O)Nc1ccc(N)cc1N
survivor count (dose: 200.0 mg/kg/injection, schedule: Q04DX003 (ip), vehicle: saline): 3 of 3

CC(C)=CCn1c(=O)c2c(ncn2C)n(C)c1=O
survivor count (dose: 400.0 mg/kg/injection, schedule: Q04DX003 (ip), vehicle: saline with Tween-80): 1 of 3

Nc1nc(-c2ccccc2)c(CCCOc2ccc([N+](=O)[O-])cc2)c(=O)[nH]1
survivor count [10]: 4 of 4

O=C(Nc1cccc(F)c1)Nc1cc(Cl)ccc1Cl
survivor count (dose: 200.0 mg/kg/injection, schedule: Q01DX009 (ip), vehicle: Klucel (hydroxypropylcellulose) (HPC)): 6 of 6

O=NN(CCCl)C(=O)Nc1ccc(Cl)c(Cl)c1
T/C (dose: 12.0 mg/kg/injection, schedule: Q01DX009 (ip), vehicle: carboxymethylcellulose (CMC)): 127 % of control | T/C (dose: 17.0 mg/kg/injection, schedule: Q01DX009 (ip), vehicle: carboxymethylcellulose (CMC)): 137 % of control | T/C (dose: 17.0 mg/kg/injection, schedule: Q01DX015 (ip), vehicle: carboxymethylcellulose (CMC)): 143 % of control | survivor count (dose: 58.0 mg/kg/injection, schedule: Q01DX015 (ip), vehicle: carboxymethylcellulose (CMC)): 6 of 6 | T/C (dose: 88.0 mg/kg/injection, schedule: Q01DX001 (ip), vehicle: carboxymethylcellulose (CMC)): 143 % of control | survivor count (dose: 88.0 mg/kg/injection, schedule: Q01DX015 (ip), vehicle: carboxymethylcellulose (CMC)): 4 of 6 | T/C (dose: 133.0 mg/kg/injection, schedule: Q01DX001 (ip), vehicle: carboxymethylcellulose (CMC)): 140 % of control | survivor count (dose: 133.0 mg/kg/injection, schedule: Q01DX015 (ip), vehicle: carboxymethylcellulose (CMC)): 2 of 6 | T/C [10]: 143 % of control | survivor count (dose: 200.0 mg/kg/injection, schedule: Q01DX015 (ip), vehicle: carboxymethylcellulose (CMC)): 0 of 6 | T/C [11]: 131 % of control

CCCCCCCCCCCCCCCC[N+](C)=C(SC)c1ccccc1OC
survivor count (dose: 6.0 mg/kg/injection, schedule: Q04DX003 (ip), vehicle: Klucel (hydroxypropylcellulose) (HPC)): 0 of 6 | survivor count (dose: 12.5 mg/kg/injection, schedule: Q04DX003 (ip), vehicle: Klucel (hydroxypropylcellulose) (HPC)): 0 of 6 | survivor count (dose: 25.0 mg/kg/injection, schedule: Q04DX003 (ip), vehicle: Klucel (hydroxypropylcellulose) (HPC)): 0 of 6 | survivor count (dose: 50.0 mg/kg/injection, schedule: Q04DX003 (ip), vehicle: Klucel (hydroxypropylcellulose) (HPC)): 1 of 6 | survivor count [9]: 0 of 6 | survivor count [3]: 0 of 6 | survivor count [4]: 0 of 6

COC1(C)C(=O)Oc2c1c1ccccc1c1ccccc21 (configuration not stated)
survivor count [1]: 6 of 6

CC(CC(c1ccccc1)c1ccccc1)[N+](C)(C)C (configuration not stated)
survivor count (dose: 100.0 mg/kg/injection, schedule: Q01DX001 (ip), vehicle: carboxymethylcellulose (CMC)): 0 of 4 | survivor count [10]: 0 of 4 | survivor count [11]: 0 of 4

O=NN(CCCl)C(=O)C1CCC(C(=O)N(CCCl)N=O)CC1 (configuration not stated)
T/C (dose: 1.0 mg/kg/injection, schedule: Q01DX001 (ip), vehicle: carboxymethylcellulose (CMC)): 125 % of control | T/C (dose: 2.0 mg/kg/injection, schedule: Q01DX001 (ip), vehicle: carboxymethylcellulose (CMC)): 138 % of control | T/C (dose: 4.0 mg/kg/injection, schedule: Q01DX001 (ip), vehicle: carboxymethylcellulose (CMC)): 146 % of control | T/C (dose: 5.0 mg/kg/injection, schedule: Q01DX001 (ip), vehicle: carboxymethylcellulose (CMC)): 128 % of control | T/C (dose: 46.0 mg/kg/injection, schedule: Q01DX001 (ip), vehicle: carboxymethylcellulose (CMC)): 131 % of control [4 of 6 alive] | survivor count (dose: 93.0 mg/kg/injection, schedule: Q01DX001 (ip), vehicle: carboxymethylcellulose (CMC)): 5 of 6 | survivor count (dose: 125.0 mg/kg/injection, schedule: Q01DX001 (ip), vehicle: carboxymethylcellulose (CMC)): 5 of 6 | survivor count (dose: 187.0 mg/kg/injection, schedule: Q01DX001 (ip), vehicle: carboxymethylcellulose (CMC)): 3 of 6 | survivor count (dose: 250.0 mg/kg/injection, schedule: Q01DX001 (ip), vehicle: carboxymethylcellulose (CMC)): 2 of 6 | survivor count (dose: 375.0 mg/kg/injection, schedule: Q01DX001 (ip), vehicle: carboxymethylcellulose (CMC)): 0 of 6 | survivor count (dose: 500.0 mg/kg/injection, schedule: Q01DX001 (ip), vehicle: carboxymethylcellulose (CMC)): 0 of 6

C/C(CC(O)(C(F)(F)Cl)C(F)(F)Cl)=N\O
survivor count [8]: 3 of 6
